The text below walks through data of paper PMC9474293.

This series has as its target T1, CTCF DBD (wild type) (human) (UniProt P49711).
T1 sequence (looked up): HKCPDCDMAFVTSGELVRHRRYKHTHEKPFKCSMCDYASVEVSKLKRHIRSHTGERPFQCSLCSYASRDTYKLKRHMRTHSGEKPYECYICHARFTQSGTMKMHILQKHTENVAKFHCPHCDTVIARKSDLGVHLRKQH
Briefly: EMSA. The settings on record: 0.1 mM Zn2+; EMSA: 0.2 uM DNA, 0-2 uM protein, 20 mM Tris-HCl pH 8.0, 150 mM NaCl, 0.1 mM ZnCl2, 1 mM DTT, 30 min RT; 12% native PAGE in 0.5x TBE; recombinant protein; residues 322-460; label: none (SYBR Safe stain). A general note: Mobility shift assays separate free from complexed probe on a gel.

Construct, isoform or probe ends are uncertain for at least one entry. A negative result means that nothing was seen under these conditions. At least one verdict was read from the data and is not stated in words by the source. Tags and fusion partners may be left off the protein sequences shown.

For “CTGCTGCCAGTAGAGGGCACACTTA (double strand) [C-MYC probe]”, the binding result is “binds”. In the case of “TCTCCTATGACTCGTCCAT (double strand) [NC probe (control motif)]” it was “no binding”.
